Positions count from the first letter of the chain named. Names and notes keep the numbering of the source. No constants are given. Whether binding was seen depends on the method and setting. For some of these results: Binding seen in cells or lysates may run through a third protein. Some entries that bind do so weakly or less than the wild type. For some of these results: Sequences can lack the tags named with a protein.
What was measured:
[1] = target: CP110-CC2 R656A/L659A (human) (UniProt O43303); test: SEC
[2] = target: T1, BioGFP-CPAP 89-196 (human) (UniProt Q9HC77); test: pull-down
T1 sequence (chain, biotin on the Bio tag (BirA co-expressed)): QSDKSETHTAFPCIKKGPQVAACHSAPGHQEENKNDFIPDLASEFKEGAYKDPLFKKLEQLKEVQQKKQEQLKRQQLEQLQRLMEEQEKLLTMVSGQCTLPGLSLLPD

Chains of the proteins cited; added tags and fusions are not shown. Lines headed by an entry give the natural chain unless they say otherwise; changes in a name come on top. Residues count along the entry.
UniProt O43303, 635-717: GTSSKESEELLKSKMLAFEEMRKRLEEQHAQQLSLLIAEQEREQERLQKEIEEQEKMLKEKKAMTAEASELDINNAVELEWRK

[3] = target: CPAP-CC1 (residues 89-196) (human) (UniProt Q9HC77); test: SEC-MALS
[4] = target: CPAP-CC1 (residues 89-196) (human) (UniProt Q9HC77); test: SEC
[5] = target: CP110-CC2 (residues 635-717) (human) (UniProt O43303); test: SEC-MALS
[6] = target: CPAP-CC1 L149A/K150A (human) (UniProt Q9HC77); test: SEC-MALS

Q: With “CP110-CC2 R656A/L659A (from UniProt O43303-2 635-717) (domain or fragment)” as the molecule, how does the binding [1] read?
A: no binding

Q: How did the binding [2] turn out when “GFP-CP110 581-991 (prey) (from UniProt O43303-2 581-991) (domain or fragment)” was run?
A: binds

B1: CPAP-CC1 (residues 89-196) (domain or fragment, UniProt Q9HC77 89-196)
chain: T1 sequence (chain, biotin on the Bio tag (BirA co-expressed))
Q: B1 was tested. Which binding [3] did it give?
A: no binding (tested: ∼ 7 mg/ml loaded)

Q: What about the binding [1] of the same molecule?
A: no binding

Q: What about the binding [4] of the same molecule?
A: no binding

B2: CPAP-CC1 L149A/K150A (domain or fragment, UniProt Q9HC77 89-196)
chain: T1 sequence (chain, biotin on the Bio tag (BirA co-expressed)) with L61A, K62A
Q: With B2 as the molecule, how does the binding [5] read?
A: no binding (tested: ∼ 7 mg/ml loaded)

Q: And the binding [6]?
A: no binding (tested: ∼ 7 mg/ml loaded)

— publication doi:10.1101/2021.12.29.474442
